The record followed here is paper PMC5127561.

Protein sequences, listed by entry. Tags and fused reporters are not part of them. Lines headed by an entry give the natural chain unless they say otherwise; changes in a name come on top.
UniProt P42283: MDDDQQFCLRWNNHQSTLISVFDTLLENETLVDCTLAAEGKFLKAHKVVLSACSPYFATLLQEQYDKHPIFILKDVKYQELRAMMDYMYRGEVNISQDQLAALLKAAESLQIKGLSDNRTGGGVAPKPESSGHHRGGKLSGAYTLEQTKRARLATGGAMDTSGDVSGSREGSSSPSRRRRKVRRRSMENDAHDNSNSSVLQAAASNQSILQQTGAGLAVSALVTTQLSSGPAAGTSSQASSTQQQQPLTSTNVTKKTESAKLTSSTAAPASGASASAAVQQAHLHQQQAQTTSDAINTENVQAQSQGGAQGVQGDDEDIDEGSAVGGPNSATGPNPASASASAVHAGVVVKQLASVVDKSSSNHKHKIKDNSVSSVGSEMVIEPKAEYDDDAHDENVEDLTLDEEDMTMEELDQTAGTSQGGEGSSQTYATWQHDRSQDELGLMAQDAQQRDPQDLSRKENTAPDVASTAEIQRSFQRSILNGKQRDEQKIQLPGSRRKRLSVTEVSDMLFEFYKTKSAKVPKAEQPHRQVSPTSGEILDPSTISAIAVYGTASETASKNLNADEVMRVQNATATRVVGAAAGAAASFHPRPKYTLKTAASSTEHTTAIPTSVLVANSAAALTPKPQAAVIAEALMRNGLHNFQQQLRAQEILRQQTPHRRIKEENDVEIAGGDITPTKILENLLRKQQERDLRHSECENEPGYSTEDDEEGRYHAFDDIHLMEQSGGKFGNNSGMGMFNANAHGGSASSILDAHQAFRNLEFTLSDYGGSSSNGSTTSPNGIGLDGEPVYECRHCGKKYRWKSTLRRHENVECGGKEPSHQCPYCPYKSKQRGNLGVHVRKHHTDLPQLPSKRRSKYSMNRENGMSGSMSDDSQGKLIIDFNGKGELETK

No constants are given. Whether binding was seen depends on the method and setting. Binding can be weak; no strength is given.

The target of experiment [1] is Rib BTB domain (Drosophila melanogaster) (UniProt Q7KF43). As to the kind of experiment: two-hybrid; Matchmaker Gold system; pGADT7 (AD) fusions in Y2H-Gold mated with pGBKT7 (BD) fusions in Y187; diploids streaked on SD-Leu-Trp-His-Ade plates with X-alpha-Gal and Aureobasidin A; four reporters.
For experiment [2], the target named is Lola BTB domain (Drosophila melanogaster) (UniProt P42283). The description is as above.

Consider “Lola BTB domain (from UniProt P42283) (domain or fragment)”, for which, in experiment [1], the binding result is reported as “binds”. As for “Rib BTB domain (from UniProt Q7KF43) (domain or fragment)”, in experiment [2], the binding result is “binds”.
